No constants are given. Whether binding was seen depends on the method and setting. Binding can be weak; no strength is given. Sequences can lack the tags named with a protein. For some of these results: Binding seen in cells or lysates may run through a third protein.
Columns and labels:
[1] = molecular target: T1, EqCmu-GFP (Erysiphe quercicola); experiment: co-IP; EqCmu-GFP and EqPdt-Flag co-expressed in N. benthamiana leaves; total leaf proteins incubated with GFP beads (Chromotek) at 4°C for 4 hours; blot with anti-GFP and anti-Flag (anti-DDDK)
T1 sequence: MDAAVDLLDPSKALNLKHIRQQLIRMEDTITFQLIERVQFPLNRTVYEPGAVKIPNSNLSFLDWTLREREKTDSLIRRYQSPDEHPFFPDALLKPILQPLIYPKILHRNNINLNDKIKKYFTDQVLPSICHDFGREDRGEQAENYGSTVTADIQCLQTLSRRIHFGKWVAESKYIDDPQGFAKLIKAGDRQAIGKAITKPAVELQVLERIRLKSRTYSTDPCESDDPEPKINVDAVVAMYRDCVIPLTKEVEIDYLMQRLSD

[2] = molecular target: T2, EqCmu-His (Erysiphe quercicola); experiment: pull-down; EqCmu-His (10 µg) held on anti-His beads at 4℃; EqPdt-GST (5 µg) added for 2 hours at 4°C, without or with infected or non-infected H. brasiliensis leaf cytosolic extract (30 µg; the extract enhanced the interaction); blot with anti-His and anti-GST; both purified
T2 sequence: T1 sequence

[3] = molecular target: T3, EqCmu-C’YFP (Erysiphe quercicola); experiment: split reporter; BiFC: EqCmu-C’YFP and EqPdt-N’YFP co-expressed in N. benthamiana leaves; YFP signals read 48 hours after Agrobacterium infiltration
T3 sequence: T1 sequence

[4] = molecular target: EqPdt-BD (Erysiphe quercicola); experiment: two-hybrid; pGADT7 and pGBKT7 fusions in yeast Y2HGold; growth on SD-LWHA with X-α-gal, 30℃

In the case of EqPdt-Flag (Erysiphe quercicola), the binding [1] is reported as “binds”.

For EqPdt-GST (Erysiphe quercicola), the binding [2] was “binds”.

With EqPdt-N’YFP (Erysiphe quercicola) the binding [3] was “binds”.

B1: EqCmu-AD (protein, UniProt A0A5B8NIM2 1-262)
chain: T1 sequence
With B1 the binding [4] was “binds”.
